This is an account of results in patent publication US11759462B2, “Spirocyclic compounds as tryptophan hydroxylase inhibitors” (priority 2013, dated 2023).

The experiment deals with jejunal mucosal 5-HT in mice (C57 BL6). Description: Intestinal 5-HT depletion assay (Example B, single 150 mg/kg oral dose). The experiment is classed as in vivo, mouse. The conditions noted are these: one day after oral administration of a single 150 mg/kg dose, P-value class (ANOVA). As for the experimental part:
The efficacy of the TPH1 inhibitors of the invention was assessed for the ability to decrease intestinal serotonin concentration in mice. Mice (C57 BL6) were administered a single 150 mg/kg dose of test article by oral gavage. Each animal was euthanized by exsanguination under isoflurane anesthesia. Jejunal intestinal mucosa was isolated and homogenized in 300 μL of a buffer containing 0.3M trichloroacetic acid, 0.1M sodium acetate, 10 mM EDTA, 20 mM sodium bisulfate and 50 mM ascorbic acid. Following centrifugation the 5-HT levels in the supernatants were measured by HPLC. The remaining mucosal pellet was solubilized overnight at 37° C. in a 0.1% sodium dodecyl sulfate buffer in 0.1N NaOH followed by determination of protein concentrations using a BCA protein assay (Pierce, Rockford, Ill. 5-HT levels were normalized to protein and data were expressed as mean percent reduction of mucosal 5-HT levels relative to vehicle control SEM (percent 5-HT reduction). All animal studies were carried out with protocols approved by the Institutional Animal Care and Use Committee.
P-values, indicating statistical significance of the data (ANOVA) are provided in the table: * refers to P<0.05, ** refers to P<0.01, *** refers to P<0.005, and refers to P<0.0005.

As for `Cc1ccn(-c2cc(Cl)ccc2[C@@H](Oc2cc(N3CCC4(CC3)CNC(C(=O)O)C4)nc(N)n2)C(F)(F)F)n1` (stereo partly drawn) [Example 10b, 8-(2-amino-6-((R)-1-(4-chloro-2-(3-methyl-1H-pyrazol-1-yl)phenyl)-2,2,2-trifluoroethoxy)pyrimidin-4-yl)-2,8-diazaspiro[4.5]decane-3-carboxylic acid], the “Efficacy (statistical significance of reduction of mucosal 5-HT concentrations relative to vehicle)” value was “*** (*** refers to P<0.005)”.

In the case of `Cc1ccn(-c2cc(Cl)ccc2[C@@H](Oc2cc(N3CCC4(CC3)CN[C@H](C(=O)O)C4)nc(N)n2)C(F)(F)F)n1` [Example 10d, (S)-8-(2-amino-6-((R)-1-(4-chloro-2-(3-methyl-H-pyrazol-1-yl)phenyl)-2,2,2-trifluoroethoxy)pyrimidin-4-yl)-2,8-diazaspiro[4.5]decane-3-carboxylic acid], the “Efficacy (statistical significance of reduction of mucosal 5-HT concentrations relative to vehicle)” value is reported as “*** (*** refers to P<0.005)”.
